Laboratory results as given in article PMC9209810.
No constants are given. Whether binding was seen depends on the method and setting. A result given as binding can be weak or reduced; the word gives no strength.

Assays:
[1] = target: ScAGL11 (Senecio cruentus); test: two-hybrid; Matchmaker Gold Yeast Two-hybrid System, strain Y2H Gold; pGBKT7 (BD) and pGADT7 (AD) fusions co-transformed, both orientations; growth on SD/-Trp/-Leu/-His/-Ade at 1-, 10- and 100-fold dilution
ScAG (Senecio cruentus) = test: as above

Row | Substance | binding [1] | binding (ScAG (Senecio cruentus))
1 | ScAG (from UniProt A0A9E7VC37) | binds | 
2 | ScAGL11 (from UniProt A0A9E8AG79) |  | binds
